Data: patent publication US20250129143A1
These are yes or no findings as the source states them, for the method shown. Some binding calls cover weakened binding; strength is not graded here. Sequences can lack the tags named with a protein.

Target: biotinylated ubiquitin (human-derived ubiquitin with C-terminal Cys residue and 6xHis tag, biotin on the Cys) (human) (UniProt P0CG48)
Assay: BLI

binding	Binder
binds	anti-ubiquitin monobody clone E, Monobody-Nus tag-His6 recombinant protein (designed binder, not shown: small tags and cut ends) LEVVEASPTSIQISWDANIYSVGQGEYVRYYRITYGETGGNSPVQEFTVPGSKSTATISGLKPGVDYTITVYAVTEYSYMYWGWPPISINYRTHHHHHH
binds	anti-ubiquitin monobody clone A, Monobody-Nus tag-His6 recombinant protein (designed binder, not shown: small tags and cut ends) LEVVEASPTSIQISWDAYPYYIIGETVRYYRITYGETGGNSPVQEFTVPGSKSTATISGLKPGVDYTITVYAVTYYGNAFWGWPPISINYRTHHHHHH
